Laboratory results: publication PMC7550656
No constants are given. Whether binding was seen depends on the method and setting. Binding seen in cells or lysates may run through a third protein.

Assays:
Test in all cases: co-IP; 293T cells cotransfected with G3BP1, G3BP2, TIA1 or TIAR and SVV 3C for 24 h; anti-Flag immunoprecipitation from NP-40 lysate, immunoblot
G3BP2, transfected = target: T1, G3BP2, transfected (UniProt Q9UN86)
T1 sequence: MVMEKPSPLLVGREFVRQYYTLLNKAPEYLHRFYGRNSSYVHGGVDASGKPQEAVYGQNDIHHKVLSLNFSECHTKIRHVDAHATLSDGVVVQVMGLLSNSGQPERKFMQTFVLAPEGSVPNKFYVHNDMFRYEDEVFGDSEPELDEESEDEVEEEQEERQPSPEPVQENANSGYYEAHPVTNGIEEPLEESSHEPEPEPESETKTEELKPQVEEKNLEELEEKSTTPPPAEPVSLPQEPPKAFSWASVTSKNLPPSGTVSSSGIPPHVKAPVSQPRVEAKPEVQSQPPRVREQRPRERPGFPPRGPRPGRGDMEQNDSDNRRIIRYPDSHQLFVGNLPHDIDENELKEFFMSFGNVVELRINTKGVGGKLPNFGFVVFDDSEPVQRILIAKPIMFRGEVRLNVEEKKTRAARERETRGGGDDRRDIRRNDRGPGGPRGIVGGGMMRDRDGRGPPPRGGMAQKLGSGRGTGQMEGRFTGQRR

TIAR, transfected = target: T2, TIAR, transfected (UniProt Q01085)
T2 sequence: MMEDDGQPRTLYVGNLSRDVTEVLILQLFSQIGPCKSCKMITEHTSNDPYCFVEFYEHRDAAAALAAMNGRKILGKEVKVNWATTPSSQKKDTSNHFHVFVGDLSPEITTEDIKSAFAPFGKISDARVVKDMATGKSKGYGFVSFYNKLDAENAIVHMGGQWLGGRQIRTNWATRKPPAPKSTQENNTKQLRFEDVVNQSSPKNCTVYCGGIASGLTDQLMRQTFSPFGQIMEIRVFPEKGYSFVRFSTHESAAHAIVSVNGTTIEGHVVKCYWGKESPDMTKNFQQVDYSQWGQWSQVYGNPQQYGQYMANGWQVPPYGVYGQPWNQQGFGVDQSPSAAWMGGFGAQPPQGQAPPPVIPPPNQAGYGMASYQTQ

[1] = target: T3, T-cell internal antigen 1, transfected (human (cDNA of 293T cells)) (UniProt P31483)
T3 sequence: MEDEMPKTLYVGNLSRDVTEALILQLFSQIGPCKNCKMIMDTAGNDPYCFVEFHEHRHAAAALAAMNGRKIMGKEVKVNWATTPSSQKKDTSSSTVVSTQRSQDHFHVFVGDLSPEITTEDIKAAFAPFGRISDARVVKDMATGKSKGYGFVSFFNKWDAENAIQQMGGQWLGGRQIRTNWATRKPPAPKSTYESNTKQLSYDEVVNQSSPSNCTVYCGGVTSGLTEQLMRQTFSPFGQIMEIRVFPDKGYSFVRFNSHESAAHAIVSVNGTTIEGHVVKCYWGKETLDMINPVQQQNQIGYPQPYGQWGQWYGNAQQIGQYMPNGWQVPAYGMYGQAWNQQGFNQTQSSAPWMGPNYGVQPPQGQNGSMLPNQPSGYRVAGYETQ

Measured: binding

Seneca Valley virus 3C protease (enzyme)
no binding: all assays above
